Source: patent US20260055096A1, “AZOLE PESTICIDAL COMPOUNDS” (BASF SE, priority 2022, published 2026)
Some entries share one result that the patent states for a list of compounds.

How the values were obtained:
Format in all cases: in vivo
[1] = test system: boll weevil (Anthonomus grandis); experiment: Example B.3: Action on boll weevil (Anthonomus grandis), egg and larval mortality on insect diet; settings: 800 ppm; egg and larval mortality after 5 days
[2] = test system: Diamond back moth (Plutella xylostella); experiment: Example B.6: Action on diamond back moth (Plutella xylostella), cabbage leaf dip, 3rd instar larvae; settings: 300 ppm; 72 hours after treatment
Protocol: The active compound is dissolved at the desired concentration in a mixture of 1:1 (v/v) distilled water: acetone. Surfactant (Kinetic® HV) is added at a rate of 0.01% (v/v). The test solution is prepared at the day of use.
Leaves of cabbage were dipped in test solution and air-dried. Treated leaves were placed in petri dishes lined with moist filter paper and inoculated with ten 3rd instar larvae. Mortality was recorded 72 hours after treatment. Feeding damages were also recorded using a scale of 0-100%.

[3] = test system: tobacco budworm (Heliothis virescens); experiment: Example B.5: Action on tobacco budworm (Heliothis virescens), egg and larval mortality on insect diet; settings: 800 ppm; egg and larval mortality after 5 days
[4] = test system: yellow fever mosquito (Aedes aegypti); settings: 800 ppm; larval mortality after 2 days
[5] = test system: Southern armyworm (Spodoptera eridania), 2nd instar larvae; experiment: Example B.7: Action on southern armyworm (Spodoptera eridania), 2nd instar larvae on sprayed lima bean plants; settings: 300 ppm; 4 days after treatment
[6] = test system: Orchid thrips (Dichromothrips corbetti); experiment: Example B.2: Action on orchid thrips (Dichromothrips corbetti), floral-immersion technique; settings: 300 ppm; 72 hours after treatment
[7] = test system: Diamond back moth (Plutella xylostella); experiment: Example B.8: Action on diamond back moth (Plutella xylostella), egg and larval mortality on insect diet in microtiter plates; settings: 800 ppm; egg and larval mortality after 5 days

Compound | mortality in comparison with untreated controls [1] | mortality in comparison with untreated controls [2] | mortality in comparison with untreated controls [3] | mortality in comparison with untreated controls [4] | mortality in comparison with untreated controls [5] | mortality in comparison with untreated controls [6] | mortality in comparison with untreated controls [7]
CC(C)c1ccc(C2CC2)cc1N1C(=O)CS/C1=N\C(=O)Nc1ccc(-c2nc(NC(=O)c3ccc(OC(F)(F)F)cc3)n(C)n2)nc1 [Example C-39] | at least 75% | at least 75% | at least 75% | – | – | – | –
Cc1ccc(C(C)C)c(N2C(=O)CSC2=NC(=O)Nc2ccc(-c3nc(NC(=O)c4ccc(OC(F)(F)F)cc4)n(C)n3)cc2Br)c1 [Example C-94] | at least 75% | – | at least 75% | at least 50% | at least 75% | at least 75% | at least 75%
Cc1ccc(C(C)C)c(N2C(=O)CSC2=NC(=O)Nc2ccc(-c3nc(NC(=O)c4ccc(Cl)cc4F)n(C)n3)cc2Cl)c1 [Example C-96] | at least 75% | – | at least 75% | at least 50% | at least 75% | at least 75% | at least 75%
Cc1ccc(C(C)C)c(N2C(=O)CSC2=NC(=O)Nc2ccc(-c3nc(NC(=O)c4ccc(Br)cc4)n(C)n3)cc2Cl)c1 [Example C-97] | at least 75% | – | at least 75% | at least 50% | at least 75% | at least 75% | at least 75%
Cc1ccc(C(C)C)c(N2C(=O)CSC2=NC(=O)Nc2ccc(-c3nc(NC(=O)c4ccc(F)c(F)c4)n(C)n3)cc2Cl)c1 [Example C-98] | at least 75% | – | at least 75% | at least 50% | at least 75% | at least 75% | at least 75%
CCc1c(-c2ccc(NC(=O)/N=C3\SCC(=O)N3c3cc(C)ccc3C(C)C)c(Cl)c2)nn(C)c1NC(=O)c1ccc(OC(F)(F)F)cc1 [Example C-99] | at least 75% | – | at least 75% | at least 50% | at least 75% | at least 75% | at least 75%
Cc1ccc(C(C)C)c(N2C(=O)CS/C2=N\C(=O)Nc2ccc(-c3nc(NC(=O)c4ccc(F)c(Cl)c4)n(C)n3)cc2Cl)c1 [Example C-100] | at least 75% | – | at least 75% | at least 50% | at least 75% | at least 75% | at least 75%
Cc1ccc(C(C)C)c(N2C(=O)CS/C2=N\C(=O)Nc2ccc(-c3nc(NC(=O)c4ccc(Cl)cc4)n(C)n3)cc2Cl)c1 [Example C-101] | at least 75% | – | at least 75% | at least 50% | at least 75% | at least 75% | at least 75%
Cc1ccc(C(C)C)c(N2C(=O)CS/C2=N\C(=O)Nc2ccc(-c3nc(NC(=O)c4ccc(C#N)cc4)n(C)n3)cc2Cl)c1 [Example C-102] | at least 75% | – | at least 75% | at least 50% | at least 75% | at least 75% | at least 75%
Cc1ccc(C(C)C)c(N2C(=O)CS/C2=N\C(=O)Nc2ccc(-c3nn(C)c(NC(=O)c4ccc(Cl)c(F)c4)c3C)cc2Cl)c1 [Example C-103] | at least 75% | – | at least 75% | at least 50% | at least 75% | at least 75% | at least 75%
Cc1ccc(C(C)C)c(N2C(=O)CS/C2=N\C(=O)Nc2ccc(-c3nc(NC(=O)c4ccc(C#N)c(F)c4)n(C)n3)cc2Cl)c1 [Example C-104] | at least 75% | – | at least 75% | at least 50% | at least 75% | at least 75% | at least 75%
Cc1ccc(C(C)C)c(N2C(=O)CS/C2=N\C(=O)Nc2ccc(-c3nc(NC(=O)c4ccc(F)cc4)n(C)n3)cc2Cl)c1 [Example C-105] | at least 75% | – | at least 75% | at least 50% | at least 75% | at least 75% | at least 75%
Cc1c(-c2ccc(NC(=O)/N=C3\SCC(=O)N3c3cc(Cl)ccc3C(C)C)c(Cl)c2)nn(C)c1NC(=O)c1ccc(OC(F)(F)F)cc1 [Example C-106] | at least 75% | – | at least 75% | at least 50% | at least 75% | at least 75% | at least 75%
Cc1ccc(C(C)C)c(N2C(=O)CS/C2=N\C(=O)Nc2ccc(-c3nc(NC(=O)c4ccc(Cl)c(F)c4)n(C)n3)cc2Cl)c1 [Example C-108] | at least 75% | – | at least 75% | at least 50% | at least 75% | at least 75% | at least 75%
Cc1ccc(C(C)C)c(N2C(=O)CS/C2=N\C(=O)Nc2ccc(-c3nn(C)c(NC(=O)c4ccc(Cl)c(Cl)c4)c3C)cc2Cl)c1 [Example C-109] | at least 75% | – | at least 75% | at least 50% | at least 75% | at least 75% | at least 75%
Cc1ccc(C(C)C)c(N2C(=O)CS/C2=N\C(=O)Nc2ccc(-c3nc(NC(=O)c4ccc(Br)c(C#N)c4)n(C)n3)cc2Cl)c1 [Example C-113] | at least 75% | – | at least 75% | at least 50% | at least 75% | at least 75% | at least 75%
Cc1c(-c2ccc(NC(=O)/N=C3\SCC(=O)N3c3ccccc3C(C)C)c(Cl)c2)nn(C)c1NC(=O)c1ccc(OC(F)(F)F)cc1 [Example C-115] | at least 75% | – | at least 75% | at least 50% | at least 75% | at least 75% | at least 75%
CC(C)c1ccc(Cl)cc1N1C(=O)CS/C1=N\C(=O)Nc1ccc(-c2nc(NC(=O)c3ccc(OC(F)(F)F)cc3)n(C)n2)cc1Cl [Example C-116] | at least 75% | – | at least 75% | at least 50% | at least 75% | at least 75% | at least 75%
Cc1ccc(C(C)C)c(N2C(=O)CSC2=NC(=O)Nc2ccc(-c3nn(C)c(NC(=O)c4ccc(OC(F)(F)F)cc4)c3C)c(Cl)c2Cl)c1 [Example C-118] | at least 75% | – | at least 75% | at least 50% | at least 75% | at least 75% | at least 75%
Cc1ccc(C(C)C)c(N2C(=O)CSC2=NC(=O)Nc2ccc(-c3nn(C)c(C(=O)Nc4ccc(OC(F)(F)F)cc4)c3C)nc2)c1 [Example C-130] | at least 75% | – | at least 75% | at least 50% | at least 75% | at least 75% | at least 75%
